{"source": "patent US20170173151A1", "about": "(Genmab, published 2017)", "target": "cynomolgus CD74 (in frozen cynomolgus lymph node tissue) (cynomolgus)", "experiment": "immunohistochemistry on frozen cynomolgus lymph node tissue", "note": "No constants are given. Whether binding was seen depends on the method and setting. Some binding calls cover weakened binding; strength is not graded here.", "data": [{"binder": "HuMab-CD74-006 (antibody, human IgG1, V domains shown, Human IgG1,kappa antibody produced transiently in HEK-293F cells; also called antibody 006) VH: QVQLVESGGGVVQPGRSLRLSCAASGFTFSSYAMHWVRQAPGKGLEWVAVISYDGSIKYYADSVKGRFTISRDNSKNTLYLQMNSLRVEDTAVFYCARGREITSQNIVILLDYWGQGTLVTVTS VL: DIQMTQSPSSLSASVGDRVTITCRASQGISSWLAWYQQKPEKAPKSLIYAASSLQSGVPSRFSGSGSGTDFTLTISSLQPEDFATYYCQQYNSYPLTFGGGTKVEIK", "values": [{"measurement": "binding", "value": "binds"}]}]}
